Results are given in words; binding and its absence hold for the method and conditions named. In cells and extracts the contact can be indirect. These calls come from enrichment with a bait or labelling near it, and not all partners need be listed. Where a sequence is shown, tags or fusion partners need not be part of it.
Target: T1, Flag-ASPA (aspartoacylase), expressed in PC-3 cells (human) (UniProt P45381)
T1 sequence: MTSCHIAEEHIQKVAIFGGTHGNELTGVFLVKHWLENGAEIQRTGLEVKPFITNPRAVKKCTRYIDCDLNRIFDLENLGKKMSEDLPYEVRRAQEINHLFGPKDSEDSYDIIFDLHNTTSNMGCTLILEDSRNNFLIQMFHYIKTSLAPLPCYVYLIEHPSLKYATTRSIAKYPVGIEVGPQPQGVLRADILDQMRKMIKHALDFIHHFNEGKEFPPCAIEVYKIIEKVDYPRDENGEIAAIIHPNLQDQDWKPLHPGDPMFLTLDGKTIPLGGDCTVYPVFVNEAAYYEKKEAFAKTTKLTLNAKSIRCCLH
Experiment: affinity purification with mass spectrometry; Flag or Flag-ASPA transfected into PC-3 cells for 48 h; lysis in IP buffer, Flag-ASPA immunoprecipitated, in-gel trypsin digestion, Q-Exactive

Protein sequences, listed by entry. Tags and fused reporters are not part of them.
UniProt P06241: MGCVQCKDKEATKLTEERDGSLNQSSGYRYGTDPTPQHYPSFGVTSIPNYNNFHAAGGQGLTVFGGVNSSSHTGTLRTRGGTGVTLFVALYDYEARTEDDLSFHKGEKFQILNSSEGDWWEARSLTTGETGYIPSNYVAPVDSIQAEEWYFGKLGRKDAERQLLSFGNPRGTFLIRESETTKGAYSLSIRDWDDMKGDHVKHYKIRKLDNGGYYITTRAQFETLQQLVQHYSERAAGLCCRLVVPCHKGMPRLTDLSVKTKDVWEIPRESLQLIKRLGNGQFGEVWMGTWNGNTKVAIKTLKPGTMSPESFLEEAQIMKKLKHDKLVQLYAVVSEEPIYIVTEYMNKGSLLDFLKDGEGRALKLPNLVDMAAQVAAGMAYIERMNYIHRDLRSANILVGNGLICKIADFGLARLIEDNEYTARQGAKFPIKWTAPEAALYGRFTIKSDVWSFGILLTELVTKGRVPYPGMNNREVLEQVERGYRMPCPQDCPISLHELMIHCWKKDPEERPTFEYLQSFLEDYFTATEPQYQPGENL
UniProt P68400: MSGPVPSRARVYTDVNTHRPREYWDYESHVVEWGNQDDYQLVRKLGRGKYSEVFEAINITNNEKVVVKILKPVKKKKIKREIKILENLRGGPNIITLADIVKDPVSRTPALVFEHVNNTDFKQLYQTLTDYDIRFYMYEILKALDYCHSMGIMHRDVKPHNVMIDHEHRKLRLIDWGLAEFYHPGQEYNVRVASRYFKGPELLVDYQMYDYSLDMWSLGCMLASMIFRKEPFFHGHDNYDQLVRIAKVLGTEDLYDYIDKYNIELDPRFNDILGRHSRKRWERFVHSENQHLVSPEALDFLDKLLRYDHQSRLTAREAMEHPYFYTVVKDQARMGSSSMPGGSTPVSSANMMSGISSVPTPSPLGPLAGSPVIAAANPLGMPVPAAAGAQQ
UniProt Q96SB4: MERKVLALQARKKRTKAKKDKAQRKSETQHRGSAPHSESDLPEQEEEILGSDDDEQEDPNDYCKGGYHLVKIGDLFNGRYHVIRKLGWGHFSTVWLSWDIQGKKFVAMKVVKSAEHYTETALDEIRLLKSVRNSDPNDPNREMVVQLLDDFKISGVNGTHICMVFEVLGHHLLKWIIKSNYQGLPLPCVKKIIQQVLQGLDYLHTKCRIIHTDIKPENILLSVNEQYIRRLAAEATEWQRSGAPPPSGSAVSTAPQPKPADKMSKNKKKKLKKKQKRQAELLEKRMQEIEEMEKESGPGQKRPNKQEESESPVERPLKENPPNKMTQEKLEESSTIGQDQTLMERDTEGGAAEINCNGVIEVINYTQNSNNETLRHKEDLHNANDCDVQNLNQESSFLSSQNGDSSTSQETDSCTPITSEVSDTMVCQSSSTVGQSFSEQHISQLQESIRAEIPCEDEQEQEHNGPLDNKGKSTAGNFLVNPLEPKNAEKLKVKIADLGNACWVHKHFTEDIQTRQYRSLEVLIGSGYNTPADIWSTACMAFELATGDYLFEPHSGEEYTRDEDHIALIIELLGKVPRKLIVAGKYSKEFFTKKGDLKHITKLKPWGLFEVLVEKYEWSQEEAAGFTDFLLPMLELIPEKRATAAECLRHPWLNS

Q: With “FYN (tyrosine-protein kinase Fyn), endogenous in PC-3 cells (from UniProt P06241 1-537) (enzyme)” as the molecule, how does the binding read?
A: binds

Q: “CSNK2A1 (casein kinase 2 alpha 1), endogenous in PC-3 cells (from UniProt P68400 1-391) (enzyme)” was tested. Which binding did it give?
A: binds

Q: For “SRPK1 (serine/arginine-rich protein-specific kinase 1), endogenous in PC-3 cells (from UniProt Q96SB4 1-655) (enzyme)”, which binding is on record?
A: binds

B1: GAK (cyclin G associated kinase), endogenous in PC-3 cells (enzyme, UniProt O14976 1-1311)
chain: MSLLQSALDFLAGPGSLGGASGRDQSDFVGQTVELGELRLRVRRVLAEGGFAFVYEAQDVGSGREYALKRLLSNEEEKNRAIIQEVCFMKKLSGHPNIVQFCSAASIGKEESDTGQAEFLLLTELCKGQLVEFLKKMESRGPLSCDTVLKIFYQTCRAVQHMHRQKPPIIHRDLKVENLLLSNQGTIKLCDFGSATTISHYPDYSWSAQRRALVEEEITRNTTPMYRTPEIIDLYSNFPIGEKQDIWALGCILYLLCFRQHPFEDGAKLRIVNGKYSIPPHDTQYTVFHSLIRAMLQVNPEERLSIAEVVHQLQEIAAARNVNPKSPITELLEQNGGYGSATLSRGPPPPVGPAGSGYSGGLALAEYDQPYGGFLDILRGGTERLFTNLKDTSSKVIQSVANYAKGDLDISYITSRIAVMSFPAEGVESALKNNIEDVRLFLDSKHPGHYAVYNLSPRTYRPSRFHNRVSECGWAARRAPHLHTLYNICRNMHAWLRQDHKNVCVVHCMDGRAASAVAVCSFLCFCRLFSTAEAAVYMFSMKRCPPGIWPSHKRYIEYMCDMVAEEPITPHSKPILVRAVVMTPVPLFSKQRSGCRPFCEVYVGDERVASTSQEYDKMRDFKIEDGKAVIPLGVTVQGDVLIVIYHARSTLGGRLQAKMASMKMFQIQFHTGFVPRNATTVKFAKYDLDACDIQEKYPDLFQVNLEVEVEPRDRPSREAPPWENSSMRGLNPKILFSSREEQQDILSKFGKPELPRQPGSTAQYDAGAGSPEAEPTDSDSPPSSSADASRFLHTLDWQEEKEAETGAENASSKESESALMEDRDESEVSDEGGSPISSEGQEPRADPEPPGLAAGLVQQDLVFEVETPAVLPEPVPQEDGVDLLGLHSEVGAGPAVPPQACKAPSSNTDLLSCLLGPPEAASQGPPEDLLSEDPLLLASPAPPLSVQSTPRGGPPAAADPFGPLLPSSGNNSQPCSNPDLFGEFLNSDSVTVPPSFPSAHSAPPPSCSADFLHLGDLPGEPSKMTASSSNPDLLGGWAAWTETAASAVAPTPATEGPLFSPGGQPAPCGSQASWTKSQNPDPFADLGDLSSGLQGSPAGFPPGGFIPKTATTPKGSSSWQTSRPPAQGASWPPQAKPPPKACTQPRPNYASNFSVIGAREERGVRAPSFAQKPKVSENDFEDLLSNQGFSSRSDKKGPKTIAEMRKQDLAKDTDPLKLKLLDWIEGKERNIRALLSTLHTVLWDGESRWTPVGMADLVAPEQVKKHYRRAVLAVHPDKAAGQPYEQHAKMIFMELNDAWSEFENQGSRPLF
Q: Which binding does the source give for B1 here?
A: binds
